# Reference: the supplement of paper PMC4604168 (melanoma cell lines)
# The other results are listed elsewhere or left out. Repeats are few or missing, and single values can be far off.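 The apoptosis fraction was the count of cleaved-PARP antibody-stained nuclei relative to all DNA-stained nuclei, imaged in 1,536-well plates. Screening doses were set so most cells survived, and baseline and induced cleaved-PARP levels vary greatly across cell lines.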
# System: UACC62
# Test: cleaved PARP positive nuclei fraction relative to DMSO control; melanoma cells; higher = more apoptosis
# Conditions: library dose: low library concentration; 72 h
row,SMILES,cleaved PARP positive nuclei fraction [%]
1,"CC[C@]1(O)C[C@H]2CN(CCc3c([nH]c4ccccc34)[C@@](C(=O)OC)(c3cc4c(cc3OC)N(C=O)[C@H]3[C@@](O)(C(=O)OC)[C@H](OC(C)=O)[C@]5(CC)C=CCN6CC[C@]43[C@@H]65)C2)C1 [vincristine] + CO[C@H]1C[C@@H]2CC[C@@H](C)[C@@](O)(O2)C(=O)C(=O)N2CCCC[C@H]2C(=O)O[C@H]([C@H](C)C[C@@H]2CC[C@@H](OCCO)[C@H](OC)C2)CC(=O)[C@H](C)/C=C(\C)[C@@H](O)[C@@H](OC)C(=O)[C@H](C)C[C@H](C)/C=C/C=C/C=C/1C [everolimus] (first compound 0.0001 µM, partner dose 0.02 µM)",1580
2,"COc1cc([C@@H]2c3cc4c(cc3[C@@H](O[C@@H]3O[C@@H]5CO[C@@H](C)O[C@H]5[C@H](O)[C@H]3O)[C@H]3COC(=O)[C@H]23)OCO4)cc(OC)c1O [etoposide] + CC1(C)CCC(c2ccc(Cl)cc2)=C(CN2CCN(c3ccc(C(=O)NS(=O)(=O)c4ccc(N[C@H](CCN5CCOCC5)CSc5ccccc5)c(S(=O)(=O)C(F)(F)F)c4)cc3)CC2)C1 [ABT263] (first compound 0.02 µM, partner dose 0.4 µM)",49.1
3,"CC[C@]1(O)C[C@H]2CN(CCc3c([nH]c4ccccc34)[C@@](C(=O)OC)(c3cc4c(cc3OC)N(C=O)[C@H]3[C@@](O)(C(=O)OC)[C@H](OC(C)=O)[C@]5(CC)C=CCN6CC[C@]43[C@@H]65)C2)C1 [vincristine] + NC(=O)c1ccc(N(C(N)=O)c2c(F)cccc2F)nc1-c1ccc(F)cc1F [VX702] (first compound 0.0001 µM, partner dose 0.4 µM)",101
4,"Cc1ccc(Nc2nccc(N(C)c3ccc4c(C)n(C)nc4c3)n2)cc1S(N)(=O)=O [Pazopanib] + C=CCNC1=C2C[C@@H](C)C[C@H](OC)[C@H](O)[C@@H](C)/C=C(\C)[C@H](OC(N)=O)[C@@H](OC)/C=C\C=C(/C)C(=O)NC(=CC1=O)C2=O [Tanespimycin] (first compound 0.4 µM, partner dose 0.002 µM)",129
5,"O=C(Nc1cc(C(F)(F)F)cc(C(F)(F)F)c1)c1cc(Cl)ccc1O + Cn1c(=O)n(-c2ccc(C(C)(C)C#N)cc2)c2c3cc(-c4cnc5ccccc5c4)ccc3ncc21 [NVP-BEZ235] (first compound 0.016 µM, partner dose 0.004 µM)",107
6,"Cc1cn(-c2cc(NC(=O)c3ccc(C)c(Nc4nccc(-c5cccnc5)n4)c3)cc(C(F)(F)F)c2)cn1 [nilotinib] + Cc1nc(Nc2ncc(C(=O)Nc3c(C)cccc3Cl)s2)cc(N2CCN(CCO)CC2)n1 [dasatanib] (first compound 0.2 µM, partner dose 0.004 µM)",104
7,"Cc1cc(Nc2cc(N3CCN(C)CC3)nc(Sc3ccc(NC(=O)C4CC4)cc3)n2)n[nH]1 [Tozasertib] + O=C(O)c1ccc2c(c1)nc(Nc1cccc(Cl)c1)c1ccncc12 [CX4945] (first compound 0.006 µM, partner dose 0.4 µM)",108
8,"O=C(Nc1cc(C(F)(F)F)cc(C(F)(F)F)c1)c1cc(Cl)ccc1O + CO[C@H]1C[C@@H]2CC[C@@H](C)[C@@](O)(O2)C(=O)C(=O)N2CCCC[C@H]2C(=O)O[C@H]([C@H](C)C[C@@H]2CC[C@@H](OCCO)[C@H](OC)C2)CC(=O)[C@H](C)/C=C(\C)[C@@H](O)[C@@H](OC)C(=O)[C@H](C)C[C@H](C)/C=C/C=C/C=C/1C [everolimus] (first compound 0.016 µM, partner dose 0.02 µM)",112
9,"Cc1cc(Nc2cc(N3CCN(C)CC3)nc(Sc3ccc(NC(=O)C4CC4)cc3)n2)n[nH]1 [Tozasertib] + Nc1cccc2c1CN(C1CCC(=O)NC1=O)C2=O [lenalidomide] (first compound 0.006 µM, partner dose 1 µM)",60.4
10,"O=C(Nc1cc(C(F)(F)F)cc(C(F)(F)F)c1)c1cc(Cl)ccc1O + Cn1nnc2c(C(N)=O)ncn2c1=O [temozolomide] (first compound 0.016 µM, partner dose 2 µM)",133
11,"COc1cc([C@@H]2c3cc4c(cc3[C@@H](O[C@@H]3O[C@@H]5CO[C@@H](C)O[C@H]5[C@H](O)[C@H]3O)[C@H]3COC(=O)[C@H]23)OCO4)cc(OC)c1O [etoposide] + Cn1sc(=O)n(Cc2ccccc2)c1=O [TDZD-8] (first compound 0.02 µM, partner dose 0.4 µM)",49.5
12,"Cc1cn(-c2cc(NC(=O)c3ccc(C)c(Nc4nccc(-c5cccnc5)n4)c3)cc(C(F)(F)F)c2)cn1 [nilotinib] + Nc1nc(F)nc2c1ncn2[C@@H]1O[C@H](CO)[C@@H](O)[C@@H]1O [fludarabine] (first compound 0.2 µM, partner dose 0.2 µM)",109
13,"O=c1[nH]nc(Sc2ncc([N+](=O)[O-])s2)n1-c1ccc2c(c1)OCCO2 + CO[C@H]1C[C@@H]2CC[C@@H](C)[C@@](O)(O2)C(=O)C(=O)N2CCCC[C@H]2C(=O)O[C@H]([C@H](C)C[C@@H]2CC[C@@H](OCCO)[C@H](OC)C2)CC(=O)[C@H](C)/C=C(\C)[C@@H](O)[C@@H](OC)C(=O)[C@H](C)C[C@H](C)/C=C/C=C/C=C/1C [everolimus] (first compound 0.2 µM, partner dose 0.02 µM)",130
14,"O=c1[nH]nc(Sc2ncc([N+](=O)[O-])s2)n1-c1ccc2c(c1)OCCO2 + Cn1nnc2c(C(N)=O)ncn2c1=O [temozolomide] (first compound 0.2 µM, partner dose 2 µM)",140
15,"Cc1cc(Nc2cc(N3CCN(C)CC3)nc(Sc3ccc(NC(=O)C4CC4)cc3)n2)n[nH]1 [Tozasertib] + C[C@@H](Oc1cc(-c2cnn(C3CCNCC3)c2)cnc1N)c1c(Cl)ccc(F)c1Cl [Crizotinib] (first compound 0.006 µM, partner dose 0.2 µM)",82.7
16,"O=c1[nH]nc(Sc2ncc([N+](=O)[O-])s2)n1-c1ccc2c(c1)OCCO2 + NC(=O)c1ccc(N(C(N)=O)c2c(F)cccc2F)nc1-c1ccc(F)cc1F [VX702] (first compound 0.2 µM, partner dose 0.4 µM)",49.8
17,"Cc1ccc(Nc2nccc(N(C)c3ccc4c(C)n(C)nc4c3)n2)cc1S(N)(=O)=O [Pazopanib] + CO[C@H]1C[C@@H]2CC[C@@H](C)[C@@](O)(O2)C(=O)C(=O)N2CCCC[C@H]2C(=O)O[C@H]([C@H](C)C[C@@H]2CC[C@@H](OCCO)[C@H](OC)C2)CC(=O)[C@H](C)/C=C(\C)[C@@H](O)[C@@H](OC)C(=O)[C@H](C)C[C@H](C)/C=C/C=C/C=C/1C [everolimus] (first compound 0.4 µM, partner dose 0.02 µM)",181
18,"Cc1ccc(Nc2nccc(N(C)c3ccc4c(C)n(C)nc4c3)n2)cc1S(N)(=O)=O [Pazopanib] + CCCS(=O)(=O)Nc1ccc(F)c(C(=O)c2c[nH]c3ncc(Cl)cc23)c1F [PLX4720] (first compound 0.4 µM, partner dose 0.08 µM)",62.5
19,"N#CC[C@H](C1CCCC1)n1cc(-c2ncnc3[nH]ccc23)cn1 [ruxolitinib] + OCc1c[nH]c2ccccc12 [Indole-3-carbinol] (first compound 1 µM, partner dose 0.8 µM)",58.1
20,"Cc1ccc(Nc2nccc(N(C)c3ccc4c(C)n(C)nc4c3)n2)cc1S(N)(=O)=O [Pazopanib] + OCc1c[nH]c2ccccc12 [Indole-3-carbinol] (first compound 0.4 µM, partner dose 0.8 µM)",50.9
21,"COc1cc([C@@H]2c3cc4c(cc3[C@@H](O[C@@H]3O[C@@H]5CO[C@@H](C)O[C@H]5[C@H](O)[C@H]3O)[C@H]3COC(=O)[C@H]23)OCO4)cc(OC)c1O [etoposide] + C[C@]1(O)C[C@@H](c2nc(-c3ccc4ccc(-c5ccccc5)nc4c3)c3c(N)nccn32)C1 [OSI906] (first compound 0.02 µM, partner dose 0.4 µM)",64.6
22,"N#CC[C@H](C1CCCC1)n1cc(-c2ncnc3[nH]ccc23)cn1 [ruxolitinib] + CO[C@H]1C[C@@H]2CC[C@@H](C)[C@@](O)(O2)C(=O)C(=O)N2CCCC[C@H]2C(=O)O[C@H]([C@H](C)C[C@@H]2CC[C@@H](OCCO)[C@H](OC)C2)CC(=O)[C@H](C)/C=C(\C)[C@@H](O)[C@@H](OC)C(=O)[C@H](C)C[C@H](C)/C=C/C=C/C=C/1C [everolimus] (first compound 1 µM, partner dose 0.02 µM)",183
23,"Cc1ccc(Nc2nccc(N(C)c3ccc4c(C)n(C)nc4c3)n2)cc1S(N)(=O)=O [Pazopanib] + Cn1nnc2c(C(N)=O)ncn2c1=O [temozolomide] (first compound 0.4 µM, partner dose 2 µM)",146
24,"O=c1[nH]nc(Sc2ncc([N+](=O)[O-])s2)n1-c1ccc2c(c1)OCCO2 + CCCS(=O)(=O)Nc1ccc(F)c(C(=O)c2c[nH]c3ncc(Cl)cc23)c1F [PLX4720] (first compound 0.2 µM, partner dose 0.08 µM)",99.4
25,"Cc1ccc(Nc2nccc(N(C)c3ccc4c(C)n(C)nc4c3)n2)cc1S(N)(=O)=O [Pazopanib] + CC(=O)c1c(C)c2cnc(Nc3ccc(N4CCNCC4)cn3)nc2n(C2CCCC2)c1=O [palbociclib] (first compound 0.4 µM, partner dose 0.04 µM)",116

# Look-ups from above:
# Under cleaved PARP positive nuclei fraction [%], Cc1cc(Nc2cc(N3CCN(C)CC3)nc(Sc3ccc(NC(=O)C4CC4)cc3)n2)n[nH]1 [Tozasertib] + Nc1cccc2c1CN(C1CCC(=O)NC1=O)C2=O [lenalidomide] (first compound 0.006 µM, partner dose 1 µM) shows 60.4
# Under cleaved PARP positive nuclei fraction [%], O=c1[nH]nc(Sc2ncc([N+](=O)[O-])s2)n1-c1ccc2c(c1)OCCO2 + CCCS(=O)(=O)Nc1ccc(F)c(C(=O)c2c[nH]c3ncc(Cl)cc23)c1F [PLX4720] (first compound 0.2 µM, partner dose 0.08 µM) shows 99.4
